SMILES strings stand for the structures.

A short description of the data set: affinity for Ca^2+ by two-phase extraction technique, aqueous phases of varying pH. It is filed as binding. The following applies: for relative affinities (Ca^2+ /Mg^2+) (in words): 4-bromo-A-23187 vs A-23187.

For the compound `CNc1ccc2oc(CC3OC4(CCC3C)OC(C(C)C(=O)c3ccc[nH]3)C(C)CC4C)nc2c1C(=O)O` (stereo not drawn) [A-23187 (free acid), reference compound], the “relative affinities (Ca^2+ /Mg^2+) (in words)” value is “similar”.
Turning to `CNc1c(Br)cc2oc(CC3OC4(CCC3C)OC(C(C)C(=O)c3ccc[nH]3)C(C)CC4C)nc2c1C(=O)O` (stereo not drawn) [4-bromo-A-23187 (free acid), 6-bromo(or chloro)-5-(methylamino)-2-[[3β,9α,-11β-trimethyl-8-[1α-methyl-2-oxo-2-(1H-pyrrol-2-yl)ethyl]-1,7-dioxaspiro[5.5]undec-2β-yl]-methyl]-4-benzoxazolecarboxylic acid], the “relative affinities (Ca^2+ /Mg^2+) (in words)” value is on record as “similar”. In addition, for the setting “vs A-23187”, the “affinity for Ca^2+ compared with parent antibiotic (in words)” value was “higher affinity for both cations than does the parent antibiotic”.

Source of the values: US4227002A, “Halo-A-23187 derivatives” (Eli Lilly and Company, priority 1978, dated 1980).
